In the supplement of paper PMC11732987, “Enantioselective OTUD7B fragment discovery through chemoproteomics screening and high-throughput optimisation” (Communications Chemistry, 2025):
Some of the results follow. The data scatter; read single values as rough.

By UniProt entry, the sequences of proteins in these tests, tags left out. Where a name states a change or a piece, a line headed by the entry shows the natural chain unless it says otherwise. Residues count along the entry.
UniProt Q9Y263: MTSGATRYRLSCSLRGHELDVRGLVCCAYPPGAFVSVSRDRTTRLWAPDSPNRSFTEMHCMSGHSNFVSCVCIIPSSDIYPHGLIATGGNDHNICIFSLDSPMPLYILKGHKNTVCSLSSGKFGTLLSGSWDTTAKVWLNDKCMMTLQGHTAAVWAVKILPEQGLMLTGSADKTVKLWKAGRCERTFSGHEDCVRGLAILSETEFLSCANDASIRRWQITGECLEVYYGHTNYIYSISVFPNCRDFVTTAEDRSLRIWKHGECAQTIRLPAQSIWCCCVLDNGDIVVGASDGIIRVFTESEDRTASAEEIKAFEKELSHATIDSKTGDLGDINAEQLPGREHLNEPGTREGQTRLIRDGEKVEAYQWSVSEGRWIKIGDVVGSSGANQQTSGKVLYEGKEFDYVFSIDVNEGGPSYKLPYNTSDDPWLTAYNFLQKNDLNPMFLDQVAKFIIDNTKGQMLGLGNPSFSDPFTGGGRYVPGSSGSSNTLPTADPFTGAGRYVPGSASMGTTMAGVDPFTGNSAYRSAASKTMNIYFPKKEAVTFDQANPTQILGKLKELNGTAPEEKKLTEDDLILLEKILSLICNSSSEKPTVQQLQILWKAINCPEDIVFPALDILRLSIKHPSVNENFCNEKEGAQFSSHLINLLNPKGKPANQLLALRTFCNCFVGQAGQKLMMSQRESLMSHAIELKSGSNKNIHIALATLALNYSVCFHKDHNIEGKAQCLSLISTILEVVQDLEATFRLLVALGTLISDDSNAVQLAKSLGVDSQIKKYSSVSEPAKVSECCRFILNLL
UniProt Q8IWE5: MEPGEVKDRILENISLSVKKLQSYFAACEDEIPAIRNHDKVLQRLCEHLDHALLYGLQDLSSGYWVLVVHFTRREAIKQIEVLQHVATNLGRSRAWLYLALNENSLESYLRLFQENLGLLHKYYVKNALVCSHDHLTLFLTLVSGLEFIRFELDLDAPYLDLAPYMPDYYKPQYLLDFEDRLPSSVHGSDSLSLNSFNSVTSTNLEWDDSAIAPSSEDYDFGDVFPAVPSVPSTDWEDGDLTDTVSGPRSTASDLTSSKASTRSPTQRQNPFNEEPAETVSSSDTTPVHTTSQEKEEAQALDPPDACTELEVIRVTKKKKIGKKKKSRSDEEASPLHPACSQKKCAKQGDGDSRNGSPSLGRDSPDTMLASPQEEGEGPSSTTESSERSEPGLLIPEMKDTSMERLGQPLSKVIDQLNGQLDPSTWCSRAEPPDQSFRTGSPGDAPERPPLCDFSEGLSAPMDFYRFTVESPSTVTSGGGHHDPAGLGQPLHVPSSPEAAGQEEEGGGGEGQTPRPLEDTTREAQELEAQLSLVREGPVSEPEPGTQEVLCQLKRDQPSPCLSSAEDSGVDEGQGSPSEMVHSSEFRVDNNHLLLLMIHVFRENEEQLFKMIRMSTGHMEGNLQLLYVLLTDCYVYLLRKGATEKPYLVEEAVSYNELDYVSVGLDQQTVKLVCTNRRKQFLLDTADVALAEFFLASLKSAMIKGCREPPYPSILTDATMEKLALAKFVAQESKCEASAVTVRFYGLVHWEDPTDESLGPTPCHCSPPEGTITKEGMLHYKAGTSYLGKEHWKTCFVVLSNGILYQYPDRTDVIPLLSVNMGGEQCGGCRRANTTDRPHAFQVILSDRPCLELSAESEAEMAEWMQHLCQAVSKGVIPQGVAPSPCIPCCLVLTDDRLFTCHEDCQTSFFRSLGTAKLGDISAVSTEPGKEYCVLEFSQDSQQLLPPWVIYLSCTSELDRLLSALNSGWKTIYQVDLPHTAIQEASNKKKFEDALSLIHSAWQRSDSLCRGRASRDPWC
UniProt Q8IY17: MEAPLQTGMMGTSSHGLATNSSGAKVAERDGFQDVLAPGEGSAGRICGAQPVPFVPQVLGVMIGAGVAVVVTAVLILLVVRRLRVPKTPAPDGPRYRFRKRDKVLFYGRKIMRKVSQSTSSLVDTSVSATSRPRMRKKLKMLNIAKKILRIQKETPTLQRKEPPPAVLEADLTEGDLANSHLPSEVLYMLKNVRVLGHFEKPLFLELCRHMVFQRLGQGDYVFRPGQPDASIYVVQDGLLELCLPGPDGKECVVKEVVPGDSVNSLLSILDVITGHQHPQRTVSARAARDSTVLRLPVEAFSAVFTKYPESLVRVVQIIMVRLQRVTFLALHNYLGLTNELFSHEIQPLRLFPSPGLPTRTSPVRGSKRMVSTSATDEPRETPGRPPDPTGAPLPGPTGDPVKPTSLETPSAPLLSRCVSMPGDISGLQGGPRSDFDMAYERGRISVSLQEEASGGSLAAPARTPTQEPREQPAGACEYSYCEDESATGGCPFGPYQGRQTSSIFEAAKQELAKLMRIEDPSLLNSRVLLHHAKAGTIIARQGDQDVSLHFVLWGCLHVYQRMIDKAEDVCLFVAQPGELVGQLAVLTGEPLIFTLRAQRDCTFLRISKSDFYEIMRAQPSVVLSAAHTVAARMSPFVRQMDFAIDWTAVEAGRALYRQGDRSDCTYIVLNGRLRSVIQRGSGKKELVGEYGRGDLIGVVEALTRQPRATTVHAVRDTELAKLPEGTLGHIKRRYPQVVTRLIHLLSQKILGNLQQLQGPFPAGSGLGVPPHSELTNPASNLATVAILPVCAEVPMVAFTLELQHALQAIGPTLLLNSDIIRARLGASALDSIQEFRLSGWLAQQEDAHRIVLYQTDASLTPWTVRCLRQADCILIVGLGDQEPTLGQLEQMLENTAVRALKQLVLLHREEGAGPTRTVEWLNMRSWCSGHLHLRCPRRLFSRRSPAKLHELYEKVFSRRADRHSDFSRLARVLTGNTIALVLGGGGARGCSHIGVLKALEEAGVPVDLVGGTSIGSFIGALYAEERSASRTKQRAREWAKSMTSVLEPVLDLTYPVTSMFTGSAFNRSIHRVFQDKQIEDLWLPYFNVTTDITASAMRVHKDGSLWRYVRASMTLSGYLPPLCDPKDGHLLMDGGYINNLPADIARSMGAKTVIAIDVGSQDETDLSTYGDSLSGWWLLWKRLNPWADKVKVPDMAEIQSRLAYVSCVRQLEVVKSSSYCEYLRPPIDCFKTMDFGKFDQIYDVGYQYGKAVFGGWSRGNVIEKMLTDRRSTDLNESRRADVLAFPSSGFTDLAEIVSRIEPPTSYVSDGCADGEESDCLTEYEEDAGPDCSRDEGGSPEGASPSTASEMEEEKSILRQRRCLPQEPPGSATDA
UniProt P15735: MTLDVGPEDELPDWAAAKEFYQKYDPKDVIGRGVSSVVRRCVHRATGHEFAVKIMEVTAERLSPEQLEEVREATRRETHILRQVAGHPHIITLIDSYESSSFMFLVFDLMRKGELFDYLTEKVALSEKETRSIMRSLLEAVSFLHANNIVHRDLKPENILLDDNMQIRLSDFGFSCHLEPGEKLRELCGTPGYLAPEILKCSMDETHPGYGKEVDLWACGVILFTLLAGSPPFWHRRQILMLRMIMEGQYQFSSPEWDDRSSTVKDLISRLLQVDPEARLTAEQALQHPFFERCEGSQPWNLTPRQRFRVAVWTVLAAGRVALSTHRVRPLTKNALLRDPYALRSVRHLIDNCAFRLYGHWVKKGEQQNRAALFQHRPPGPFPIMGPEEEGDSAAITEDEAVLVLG
UniProt Q9HB20: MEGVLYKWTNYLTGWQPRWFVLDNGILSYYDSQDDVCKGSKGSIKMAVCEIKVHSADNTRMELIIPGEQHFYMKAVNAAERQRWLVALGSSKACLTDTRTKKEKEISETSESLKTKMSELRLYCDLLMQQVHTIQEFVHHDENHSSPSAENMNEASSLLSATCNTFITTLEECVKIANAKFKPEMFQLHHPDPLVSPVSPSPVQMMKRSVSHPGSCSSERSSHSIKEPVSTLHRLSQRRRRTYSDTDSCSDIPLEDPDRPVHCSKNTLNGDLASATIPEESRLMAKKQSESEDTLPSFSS
UniProt Q15054: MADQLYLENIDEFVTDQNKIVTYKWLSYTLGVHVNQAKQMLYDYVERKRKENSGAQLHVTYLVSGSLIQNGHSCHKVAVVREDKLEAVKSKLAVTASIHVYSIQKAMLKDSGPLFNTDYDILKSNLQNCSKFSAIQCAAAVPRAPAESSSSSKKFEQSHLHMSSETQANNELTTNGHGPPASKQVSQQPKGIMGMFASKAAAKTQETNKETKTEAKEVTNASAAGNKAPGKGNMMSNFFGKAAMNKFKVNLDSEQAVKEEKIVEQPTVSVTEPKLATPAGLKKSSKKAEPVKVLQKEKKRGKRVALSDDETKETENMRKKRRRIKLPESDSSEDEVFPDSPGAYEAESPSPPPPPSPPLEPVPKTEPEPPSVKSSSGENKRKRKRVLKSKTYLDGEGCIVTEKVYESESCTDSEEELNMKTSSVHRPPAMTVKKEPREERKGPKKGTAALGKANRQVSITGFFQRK
UniProt Q92576, whole entry, looked up: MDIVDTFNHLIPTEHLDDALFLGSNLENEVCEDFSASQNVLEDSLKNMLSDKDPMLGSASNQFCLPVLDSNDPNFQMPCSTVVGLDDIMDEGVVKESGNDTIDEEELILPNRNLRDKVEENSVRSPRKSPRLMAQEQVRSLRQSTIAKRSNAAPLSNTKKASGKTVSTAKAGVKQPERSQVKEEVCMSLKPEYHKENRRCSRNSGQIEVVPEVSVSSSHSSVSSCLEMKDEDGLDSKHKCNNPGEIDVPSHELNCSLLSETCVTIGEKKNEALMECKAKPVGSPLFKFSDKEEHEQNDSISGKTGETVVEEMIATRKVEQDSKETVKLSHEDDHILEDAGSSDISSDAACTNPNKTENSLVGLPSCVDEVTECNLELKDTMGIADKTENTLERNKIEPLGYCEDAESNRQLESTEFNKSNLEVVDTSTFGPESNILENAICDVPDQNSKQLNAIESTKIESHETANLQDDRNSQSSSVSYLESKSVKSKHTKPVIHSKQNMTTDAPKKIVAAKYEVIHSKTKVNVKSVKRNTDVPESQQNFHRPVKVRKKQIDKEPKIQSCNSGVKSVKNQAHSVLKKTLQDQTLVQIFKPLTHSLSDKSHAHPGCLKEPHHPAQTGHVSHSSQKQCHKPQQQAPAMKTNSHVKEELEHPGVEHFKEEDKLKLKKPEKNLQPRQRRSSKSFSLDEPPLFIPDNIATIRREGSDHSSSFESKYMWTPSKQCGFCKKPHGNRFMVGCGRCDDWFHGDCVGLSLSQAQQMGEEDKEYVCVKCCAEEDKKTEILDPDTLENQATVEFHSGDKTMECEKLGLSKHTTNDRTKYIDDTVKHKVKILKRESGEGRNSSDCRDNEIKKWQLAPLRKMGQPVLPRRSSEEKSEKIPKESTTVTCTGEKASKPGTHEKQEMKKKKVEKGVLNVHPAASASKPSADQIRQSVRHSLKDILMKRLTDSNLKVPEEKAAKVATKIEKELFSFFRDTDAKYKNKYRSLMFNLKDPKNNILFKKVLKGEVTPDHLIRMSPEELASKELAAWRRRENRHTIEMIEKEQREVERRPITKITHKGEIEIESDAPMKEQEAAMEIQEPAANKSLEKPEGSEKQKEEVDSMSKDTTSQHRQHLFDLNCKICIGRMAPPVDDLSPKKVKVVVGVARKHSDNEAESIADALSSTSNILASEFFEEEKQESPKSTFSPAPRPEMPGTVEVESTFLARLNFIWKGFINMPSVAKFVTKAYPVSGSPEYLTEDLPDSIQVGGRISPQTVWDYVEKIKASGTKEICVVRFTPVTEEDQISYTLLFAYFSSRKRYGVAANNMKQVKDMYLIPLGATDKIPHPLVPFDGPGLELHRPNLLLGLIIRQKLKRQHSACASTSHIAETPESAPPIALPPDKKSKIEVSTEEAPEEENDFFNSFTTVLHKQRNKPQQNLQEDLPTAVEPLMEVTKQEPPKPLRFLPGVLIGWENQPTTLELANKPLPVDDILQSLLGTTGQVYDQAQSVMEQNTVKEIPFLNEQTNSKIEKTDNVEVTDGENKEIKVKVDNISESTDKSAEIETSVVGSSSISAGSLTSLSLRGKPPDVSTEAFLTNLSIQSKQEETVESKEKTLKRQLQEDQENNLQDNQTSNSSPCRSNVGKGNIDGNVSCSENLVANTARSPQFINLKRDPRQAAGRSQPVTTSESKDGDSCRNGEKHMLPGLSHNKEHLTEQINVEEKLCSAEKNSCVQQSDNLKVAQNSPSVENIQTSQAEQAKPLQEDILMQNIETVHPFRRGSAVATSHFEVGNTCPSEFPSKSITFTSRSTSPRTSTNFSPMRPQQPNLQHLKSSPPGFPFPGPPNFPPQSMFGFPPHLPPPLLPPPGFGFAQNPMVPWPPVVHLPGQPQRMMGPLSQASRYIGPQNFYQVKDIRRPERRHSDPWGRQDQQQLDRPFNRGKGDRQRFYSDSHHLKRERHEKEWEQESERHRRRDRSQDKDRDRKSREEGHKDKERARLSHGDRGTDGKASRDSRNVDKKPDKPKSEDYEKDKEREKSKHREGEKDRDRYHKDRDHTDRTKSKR
UniProt Q16513, 100-120: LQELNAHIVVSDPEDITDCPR
UniProt Q9H8W4, 140-160: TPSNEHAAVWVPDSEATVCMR
UniProt Q07864, 580-604: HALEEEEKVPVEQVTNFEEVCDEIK
UniProt Q99570, 892-917: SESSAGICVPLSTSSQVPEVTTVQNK

Compound: ClCC(=O)N[C@@H]1CCCc2ccccc12
Assay: log2 mean competition ratio of IA-DTB cysteine labelling (DMSO/compound) (log2 ratio); higher = stronger cysteine engagement by compound
Details: 200 µM; treatment time: 4 h; cell line lysate: HEK293T
Procedure: (§1)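 IA-DTB competitive cysteine chemoproteomics in HEK293T RIPA lysate. Lysates were treated with compound 29 or 30 at 50 or 200 µM for 4 h, then IA-DTB (500 µM, 1 h), trypsin-digested, NeutrAvidin-enriched and analysed by diaPASEF. Competition ratio = intensity DMSO / intensity compound (n=4 treated, n=64 DMSO); binding: mean log2 CR ≥ 1 and p ≤ 0.05 plus QC filters. Target is the cysteine site.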

Row | Target | log2 mean competition ratio
1 | PHRF1 C1123 (UniProt Q9P1Y6) | 0.2
2 | PLAA C605 (UniProt Q9Y263) | 0.1
3 | PLEKHM2 C340 (UniProt Q8IWE5) | 0.15
4 | PNPLA6 C418 (UniProt Q8IY17) | 0.0565
5 | PHKG2 C176 (UniProt P15735) | 0.392
6 | PLEKHA3 C94 (UniProt Q9HB20) | -0.123
7 | POLD1 C193 (UniProt P28340) | 0.169
8 | POLD3 C398 (UniProt Q15054) | -0.137
9 | PI4KA C1131 (UniProt P42356) | 0.147

Compound: ClCC(=O)N[C@H]1CCCc2ccccc12
Assay: as above
Details: 50 µM; treatment time: 4 h; cell line lysate: HEK293T
Procedure: as §1

Row | Target | log2 mean competition ratio
10 | PHF3 C561 (UniProt Q92576) | 0.019
11 | PKP4 C591 (UniProt Q99569) | 0.228
12 | PKN2 C118 (UniProt Q16513) | 0.143
13 | PHKA1 C656 (UniProt P46020) | -0.0716
14 | PIKFYVE C161 (UniProt Q9Y2I7) | -0.18
15 | PLEKHO1 C269 | -0.123
16 | PLEKHF2 C158 (UniProt Q9H8W4) | -0.277
17 | PKP2 C647 (UniProt Q99959) | 0.386
18 | PHLPP1 C1312 (UniProt O60346) | -0.4
19 | POLL C425 | -0.795
20 | PHF6 C28 (UniProt Q8IWS0) | 0.0534
21 | PKN2 C394 (UniProt Q16513) | -0.51
22 | POLD1 C1058 (UniProt P28340) | 0.163
23 | PMPCB C485 (UniProt O75439) | -0.0359
24 | POLE C600 (UniProt Q07864) | -0.299
25 | PHF3 C1631 (UniProt Q92576) | 0.203
26 | PMS2 C202 (UniProt P54278) | -0.14
27 | PMM2 C136 (UniProt O15305) | -0.0752
28 | PLEKHG3 C30 | -0.476

Row | Target | log2 mean competition ratio
29 | POGK C218 (UniProt Q9P215) | -0.137
30 | PLCG2 C791 (UniProt P16885) | -0.0145
31 | PKNOX1 C109 (UniProt P55347) | 0.0736
32 | PIK3CA C242 (UniProt P42336) | 0.0835
33 | PIK3R4 C899 (UniProt Q99570) | 0.38
34 | PLEKHA7 C699 (UniProt Q6IQ23) | -0.468
35 | PIBF1 C199 (UniProt Q8WXW3) | 0.475
36 | PHKA1 C937 (UniProt P46020) | -0.000887
37 | PLEKHM2 C551 (UniProt Q8IWE5) | -0.467
38 | PHRF1 C1123 (UniProt Q9P1Y6) | -0.391
39 | PLAA C605 (UniProt Q9Y263) | 0.281
40 | PLEKHM2 C340 (UniProt Q8IWE5) | 0.0207
41 | PNPLA6 C418 (UniProt Q8IY17) | 0.564
42 | PHKG2 C176 (UniProt P15735) | -0.21
43 | PLEKHA3 C94 (UniProt Q9HB20) | 0.387
44 | POLD1 C193 (UniProt P28340) | 0.612
45 | POLD3 C398 (UniProt Q15054) | -0.0373
46 | PI4KA C1131 (UniProt P42356) | 0.551

Same assay, conditions: 200 µM; treatment time: 4 h; cell line lysate: HEK293T

Row | Target | log2 mean competition ratio
47 | PHF3 C561 (UniProt Q92576) | -0.0297
48 | PKP4 C591 (UniProt Q99569) | 0.158
49 | PKN2 C118 (UniProt Q16513) | 0.0404
50 | PHKA1 C656 (UniProt P46020) | 0.0683
51 | PIKFYVE C161 (UniProt Q9Y2I7) | 0.0847
52 | PLEKHO1 C269 | 0.4
53 | PLEKHF2 C158 (UniProt Q9H8W4) | -0.0738
54 | PKP2 C647 (UniProt Q99959) | 0.241
55 | PHLPP1 C1312 (UniProt O60346) | 0.238
56 | POLL C425 | -0.046
57 | PHF6 C28 (UniProt Q8IWS0) | 0.0623
58 | PKN2 C394 (UniProt Q16513) | 0.248
59 | POLD1 C1058 (UniProt P28340) | 0.0961
60 | PMPCB C485 (UniProt O75439) | 0.143
61 | POLE C600 (UniProt Q07864) | -0.2
62 | PHF3 C1631 (UniProt Q92576) | 0.267
63 | PMS2 C202 (UniProt P54278) | -0.0326
64 | PMM2 C136 (UniProt O15305) | 0.00449
65 | PLEKHG3 C30 | 0.145

Row | Target | log2 mean competition ratio
66 | POGK C218 (UniProt Q9P215) | -0.23
67 | PLCG2 C791 (UniProt P16885) | 0.15
68 | PKNOX1 C109 (UniProt P55347) | 0.106
69 | PIK3CA C242 (UniProt P42336) | -0.31
70 | PIK3R4 C899 (UniProt Q99570) | -0.147
71 | PLEKHA7 C699 (UniProt Q6IQ23) | -0.0205
72 | PIBF1 C199 (UniProt Q8WXW3) | -0.19
73 | PHKA1 C937 (UniProt P46020) | -0.136
74 | PLEKHM2 C551 (UniProt Q8IWE5) | -0.116
75 | PHRF1 C1123 (UniProt Q9P1Y6) | -0.0129
76 | PLAA C605 (UniProt Q9Y263) | 0.332
77 | PLEKHM2 C340 (UniProt Q8IWE5) | 0.0291
78 | PNPLA6 C418 (UniProt Q8IY17) | 0.16
79 | PHKG2 C176 (UniProt P15735) | 0.248
80 | PLEKHA3 C94 (UniProt Q9HB20) | 0.315
81 | POLD1 C193 (UniProt P28340) | -0.116
82 | POLD3 C398 (UniProt Q15054) | -0.141
83 | PI4KA C1131 (UniProt P42356) | -0.345
